Data published in publication PMC6635525.
No constants are given. Whether binding was seen depends on the method and setting. Binding seen in cells or lysates may run through a third protein.

Sequences of proteins named here, by UniProt entry; tags and fusion partners are left off.
UniProt Q13114: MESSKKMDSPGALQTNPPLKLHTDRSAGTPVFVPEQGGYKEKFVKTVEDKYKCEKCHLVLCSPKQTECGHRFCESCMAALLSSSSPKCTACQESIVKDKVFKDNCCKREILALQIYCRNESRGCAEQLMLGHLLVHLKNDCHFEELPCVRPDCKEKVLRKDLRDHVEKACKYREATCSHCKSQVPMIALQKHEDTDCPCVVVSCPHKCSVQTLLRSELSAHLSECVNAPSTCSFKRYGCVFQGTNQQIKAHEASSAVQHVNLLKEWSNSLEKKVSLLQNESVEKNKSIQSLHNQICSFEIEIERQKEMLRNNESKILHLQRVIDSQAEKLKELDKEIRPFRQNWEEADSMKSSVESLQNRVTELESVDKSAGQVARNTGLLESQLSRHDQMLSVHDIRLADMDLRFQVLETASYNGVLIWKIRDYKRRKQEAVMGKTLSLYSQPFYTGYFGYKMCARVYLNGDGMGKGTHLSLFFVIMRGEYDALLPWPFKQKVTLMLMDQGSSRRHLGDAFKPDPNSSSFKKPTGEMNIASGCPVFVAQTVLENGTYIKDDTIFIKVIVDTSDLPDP
UniProt Q9Y4K3: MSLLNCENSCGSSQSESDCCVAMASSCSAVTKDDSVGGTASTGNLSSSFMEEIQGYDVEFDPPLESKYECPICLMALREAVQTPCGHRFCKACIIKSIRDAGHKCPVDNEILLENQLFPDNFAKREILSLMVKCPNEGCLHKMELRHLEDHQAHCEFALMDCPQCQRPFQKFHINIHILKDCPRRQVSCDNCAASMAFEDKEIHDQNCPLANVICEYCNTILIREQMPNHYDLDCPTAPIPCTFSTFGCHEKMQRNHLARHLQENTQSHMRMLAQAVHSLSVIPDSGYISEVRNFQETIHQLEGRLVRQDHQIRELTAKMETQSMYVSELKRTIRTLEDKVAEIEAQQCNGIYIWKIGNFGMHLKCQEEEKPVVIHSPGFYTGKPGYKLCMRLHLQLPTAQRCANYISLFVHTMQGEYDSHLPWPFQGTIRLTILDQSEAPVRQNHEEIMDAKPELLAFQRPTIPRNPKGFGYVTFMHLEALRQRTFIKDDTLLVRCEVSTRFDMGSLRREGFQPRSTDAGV

Biological target: ROP38I with a C-terminal HA-FLAG epitope tag (Toxoplasma gondii (type I, RH strain)) (UniProt S8FZ79)
Experiment: co-IP; HA immunoprecipitation (magnetic beads) from lysates of tetracycline-induced TREX-293 GRA15II or ROP38I cells; immunoblot with TRAF2, TRAF3 and TRAF6 antibodies

Substance | binding
TNF receptor-associated factor 3 (TRAF3) (from UniProt Q13114 1-568) | no binding
TNF receptor-associated factor 6 (TRAF6) (from UniProt Q9Y4K3 1-522) | no binding
